Whole data set: some 33,000 sequences, median “E-score (-0.5 to 0.5)” near -0.015, cut for the highest 2% near 0.3. The list shows a part of the results.
Target: T1, Abf1 (UniProt P14164)
T1 sequence: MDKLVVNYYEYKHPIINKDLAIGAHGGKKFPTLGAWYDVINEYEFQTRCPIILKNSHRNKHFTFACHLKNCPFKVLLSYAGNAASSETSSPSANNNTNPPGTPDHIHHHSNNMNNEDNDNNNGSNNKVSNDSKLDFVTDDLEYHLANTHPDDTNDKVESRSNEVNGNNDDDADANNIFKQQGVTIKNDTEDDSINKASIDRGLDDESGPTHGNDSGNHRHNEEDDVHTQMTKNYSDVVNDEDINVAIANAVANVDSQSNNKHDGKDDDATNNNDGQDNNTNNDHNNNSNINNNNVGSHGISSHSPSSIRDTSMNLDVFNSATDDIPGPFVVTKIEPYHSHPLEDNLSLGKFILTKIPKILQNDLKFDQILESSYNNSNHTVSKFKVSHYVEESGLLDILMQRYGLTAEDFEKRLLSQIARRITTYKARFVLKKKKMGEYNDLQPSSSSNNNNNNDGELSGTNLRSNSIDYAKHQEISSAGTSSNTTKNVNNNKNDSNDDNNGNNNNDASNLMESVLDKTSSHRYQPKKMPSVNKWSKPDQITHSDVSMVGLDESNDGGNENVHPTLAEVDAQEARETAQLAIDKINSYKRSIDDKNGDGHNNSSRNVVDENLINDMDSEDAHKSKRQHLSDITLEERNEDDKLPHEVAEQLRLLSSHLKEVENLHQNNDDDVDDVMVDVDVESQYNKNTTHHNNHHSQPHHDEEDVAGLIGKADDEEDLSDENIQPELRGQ
Assay: PBM E-score (8-mer binding enrichment) (E-score (-0.5 to 0.5)); higher = stronger / more preferred TF binding
Details: protein concentration: 200 nM; construct: GST-full length
Method in brief: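 Masliner-normalised scans of fluorescent anti-GST signal were the basis for scoring. That signal came from GST-tagged yeast transcription factors applied at about 100-200 nM to double-stranded universal all-10-mer Agilent arrays on fresh or once-stripped slides. Each ungapped eight-base word, pooled with its reverse complement, received an E-score from the Universal PBM Analysis Suite.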

| Sequence | PBM E-score |
| --- | --- |
| ACGATTAG | 0.29 |
| GTGTTTAA | 0.0683 |
| GCAAAAGA | 0.00896 |
| ATAGACCG | -0.19 |
| CTGTTGCC | -0.278 |
| GACTTTTA | -0.0221 |
| AAGTGATT | 0.347 |
| ATTCCTCC | 0.0441 |
| CTAACGAA | 0.241 |
| GGGTGAAC | -0.104 |
| CTGTTCGA | -0.124 |
| GGTTAATA | 0.0879 |
| CAGCTGGG | -0.242 |
| CTGCCGTC | 0.198 |
| GAAATCCA | 0.0415 |
| CTTCGCTC | -0.04 |
| ATCAAACC | 0.0683 |
| GCATAGCC | -0.198 |
| AGACTACC | -0.0764 |
| AGCACACT | -0.096 |
| AAGCGGTC | -0.106 |
| ATCCAGTC | 0.0249 |
| GCGGTACA | -0.0834 |
| ACGTTCAG | -0.0944 |
| AACGAGTA | 0.0542 |

Some of the entries so far, with bars between the fields:
Sequence | PBM E-score
CTGTTGCC | -0.278
GACTTTTA | -0.0221
AAGTGATT | 0.347
ATTCCTCC | 0.0441
CTAACGAA | 0.241
GGGTGAAC | -0.104
CTGTTCGA | -0.124

(cont.)

| Sequence | PBM E-score |
| --- | --- |
| CGTGGATA | 0.252 |
| ATCAGATC | -0.0505 |
| CAATTGTA | -0.149 |
| GATGGTAC | -0.128 |
| ACAACCCC | -0.112 |
| ATAGCCTA | -0.138 |
| AGGCTTAT | -0.0827 |
| ATAACGGA | 0.155 |
| GTCTTAGA | 0.00671 |
| CGTGCAAC | 0.247 |
| GCTGCTAA | -0.157 |
| AATACAGG | -0.0816 |
| GGGTTACC | -0.0518 |
| GTTGGCTA | -0.201 |
| ACGCGCCC | -0.156 |
| AACAGATC | 0.0561 |
| CCATTATC | 0.227 |
| CCAGTCCG | -0.16 |
| GCCCTCAC | -0.216 |
| CTCCGCAC | 0.0815 |
| TAATCAGA | 0.0286 |
| CATTTCAC | 0.00776 |
| CATCTGCC | -0.108 |
| ACATGAAT | 0.0379 |
| CGCTCTCC | -0.214 |

| Sequence | PBM E-score |
| --- | --- |
| AACTGCTC | -0.177 |
| CCTGGGGC | -0.246 |
| ACGATGGG | -0.08 |
| CTATAACA | -0.0383 |
| AGATTCCC | -0.0908 |
| CCCCTCCA | -0.294 |
| AACGATGC | -0.126 |
| CTCAATGC | -0.0685 |
| AGTTTCAA | -0.0162 |
| ATGTTGAA | 0.104 |
| AAACGAGT | 0.206 |
| CCGTGCCC | -0.126 |
| AGCTCCTC | -0.177 |
| TCCACGAA | 0.352 |
| GACATTAA | 0.227 |
| CCCCACGA | -0.0376 |
| CATGAGGA | -0.107 |
| ACGCAAAT | -0.186 |
| CGTGAAAC | 0.211 |
| ACAATGAT | 0.219 |
| GTGAGGAA | 0.0988 |
| CGACTTGC | -0.129 |
| TACAGCTA | -0.41 |
| AGACAGCG | -0.0189 |
| GTCGGTAA | 0.218 |

| Sequence | PBM E-score |
| --- | --- |
| TCGGGCAA | 0.153 |
| GTTGCGAA | 0.0252 |
| AGTCGGCC | -0.0371 |
| GGGTTTAA | -0.0431 |
| CGCACGGC | 0.156 |
| ATATAAAC | 0.0743 |
| ATGATTAC | 0.127 |
| CTTACCAC | -0.105 |
| GAGGAATC | -0.0468 |
| AATACAAC | -0.0317 |
| AATAACCA | 0.116 |
| TAGATATA | 0.0877 |
| AGCCAGTA | -0.102 |
| AAATAAAA | 0.0964 |
| ACATTCAG | -0.0658 |
| GTAATAGA | -0.0206 |
| ATTCTAAC | -0.0235 |
| AAAGAAAA | 0.0211 |
| CGTCTCAA | 0.15 |
| GCTTACGA | -0.071 |
| ATAACATC | 0.192 |
| ACTACGCC | -0.119 |
| CAATAGCA | -0.123 |
| CCCCTTAC | -0.0737 |
| AATTTACA | -0.0267 |

| Sequence | PBM E-score |
| --- | --- |
| AGTATACG | 0.282 |
| CCTGGGAC | -0.101 |
| TGCGCCAA | 0.0027 |
| CGGGGTCA | -0.0973 |
| GGAAAGAA | -0.0716 |
| ATGGTATA | 0.116 |
| TGGCGCCA | -0.115 |
| ACTGGGTC | -0.146 |
| AACCTCTG | -0.0228 |
| CCCTCCCA | -0.294 |
| AACAAGTA | -0.175 |
| CTTCCGGA | -0.1 |
| AAGATCCA | -0.124 |
| CTTTCTTA | 0.0107 |
| GTTCAATA | 0.094 |
| TATCCCCA | -0.0355 |
| GAATAGTC | -0.0995 |
| GCGTAATA | 0.116 |
| AGTACGCG | 0.0303 |
| GACTCGGC | -0.196 |
| ACCATAGT | -0.0565 |
| GTGTCTTA | 0.0234 |
| GCTATACA | -0.0687 |
| CACTCCAA | -0.0363 |
| CAAAAGTC | 0.0685 |

Individual results from the results shown.
AGTATACG – PBM E-score: 0.282
AAGATCCA – PBM E-score: -0.124
AACCTCTG – PBM E-score: -0.0228
GTGTCTTA – PBM E-score: 0.0234
GGAAAGAA – PBM E-score: -0.0716
CCCTCCCA – PBM E-score: -0.294

Next part:

| Sequence | PBM E-score |
| --- | --- |
| ATAGCTCC | -0.209 |
| ATGGGAAA | -0.161 |
| GTAAACAA | 0.202 |
| CGCCATCC | -0.0651 |
| TCACGAGA | 0.179 |
| ACTGAAGC | -0.156 |
| CACTCCTG | -0.207 |
| CGACCTCG | 0.0654 |
| ACAATAAT | 0.0401 |
| CCGCTTTC | -0.159 |
| AGCCGCAA | -0.221 |
| GCACCAGA | -0.123 |
| ATAGTCAG | 0.0806 |
| CAAACGCG | 0.0604 |
| GGGCTTCA | -0.214 |
| ATGCAAAG | -0.0175 |
| ATTACCTC | -0.0832 |
| AACGCGAC | 0.0646 |
| GCGTTAGA | 0.0278 |
| AATTAACG | 0.164 |
| ACGTATAT | 0.193 |
| CCCGAAAC | 0.0884 |
| AATGCACT | -0.0348 |
| TGCCGACA | 0.143 |
| TACAAGCA | 0.0574 |

| Sequence | PBM E-score |
| --- | --- |
| CCATTGTA | -0.117 |
| GACAAACA | 0.203 |
| TGATGCAA | 0.0768 |
| ATCTGGTC | -0.134 |
| CAAAATTC | 0.11 |
| CATCCCCG | -0.108 |
| CTGAAGGC | -0.154 |
| TATTTAGA | 0.111 |
| GTCTAGAA | 0.0292 |
| ACCCGGAA | -0.061 |
| AAGAATTA | 0.0283 |
| GAAAGTCA | 0.222 |
| AAAGCCCA | -0.0233 |
| ATGATAGC | 0.24 |
| ACCCTATA | -0.182 |
| ATTCCATC | 0.0906 |
| AGGAAACT | -0.145 |
| GGATGCGA | -0.0633 |
| CTTATCAC | 0.369 |
| CGGGCGGA | -0.157 |
| AAAGATAA | 0.154 |
| GGCCTTAC | -0.115 |

— the supplement of paper PMC3334620
